The record followed here is EP2392597B1.

By UniProt entry, the sequences of proteins in these tests, tags left out. Where a name states a change or a piece, a line headed by the entry shows the natural chain unless it says otherwise.
UniProt Q9NPF7: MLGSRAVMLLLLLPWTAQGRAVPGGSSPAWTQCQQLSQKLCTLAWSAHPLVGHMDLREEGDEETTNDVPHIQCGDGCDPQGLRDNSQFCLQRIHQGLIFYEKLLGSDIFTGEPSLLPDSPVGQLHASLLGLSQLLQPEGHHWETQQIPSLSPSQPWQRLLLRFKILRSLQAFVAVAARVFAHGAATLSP

B1: anti-IL-23p19 Fab/scFv cluster 163 (Fab, V domains shown)
VH: EVQLLESGGGLVQPGGSLRLSCAASGFTFSKYNMFWVRQAPGKGLEWVSVIGSSGGTTGYADSVKGRFTISRDNSKNTLYLQMNSLRAEDTATYYCAREKGIAAAYDYWGQGTLVTVSS
VL: DIQMTQSPGTLSLSPGERATLSCRASQSVSSNYLAWYQQKPGQAPRLLMYGASTRATGVPDRFSGSGSGTEFTLTINSLQSEDFAVYYCQQYNYWPRTFGTGTKVEIK
B2: anti-IL-23p19 Fab/scFv cluster 161 (Fab, V domains shown)
VH: EVQLLESGGGLVQPGGSLRLSCAASGFTFSWYMMHWVRQAPGKGLEWVSSIGSSGGFTTYADSVKGRFTISRDNSKNTLYLQMNSLRAEDTAVYYCATGAMGSAFDIWGQGTMVTVSS
VL: DIQMTQSPLSLPVTPGEPASISCRSSQSLLQSNGYNYLDWYLQKPGQSPQLLIYLGSNRASGVPDRFSGSGSGTDFTLIISRVEADDVGVYYCMQGLQTPHTFGQGTKLEIK
B3: anti-IL-23p19 Fab/scFv cluster 164 (Fab, V domains shown)
VH: EVQLLESGGGLVQPGGSLRLSCAASGFTFSLYKMMWVRQAPGKGLEWVSSIYSSGGRTNYADSVKGRFTISRDNSKNTLYLQMNSLRAEDTAVYYCATDVTWWPRSYWGQGTLVTVSS
VL: DIQMTQSPGTLSLSPGERATLSCWASQSVKSNYLAWYQQKPGQAPRLLIYGASSRATGIPDRFSGSGSGTDFTLTISRLEPEDFAVYYCQQYGSSPRTFGQGTKVEIK
B4: anti-IL-23p19 Fab/scFv cluster 160 (Fab, V domains shown)
VH: EVQLLESGGGLVQPGGSLRLSCAASGFTFSNYSMSWVRQAPGKGLEWVSSIRSSGGRTDYADSVKGRFTISRDNSKNTLYLQMNSLRAEDTAVYYCATGIAVARYWGQGTLVTVSS
VL: DIQMTQSPSTLSASVGDRVTITCRASQNIGTWVVWYQQRPGKAPSLLIYKASTLESGVPSRFSGSGSGTEFTLTISSLQPDDFATYYCQQFYTSKTFGQGTKVEIK
B5: anti-IL-23p19 Fab/scFv cluster 162 (Fab, V domains shown)
VH: B4 VH
VL: DIQMTQSPGTLSLSPGERATVSCRASQSVSSSYLAWYQQKPGLAPRLLIYDASNRATGIPDRFSGSGSGTDFTLTITRLEPEDFAVYYCQQYSTSPFTFGPGTKVDIK

Results are given in words; binding and its absence hold for the method and conditions named. Some results given as binding are weak or reduced against the parent protein; the word gives no strength.

In the test the target is human p19 subunit of IL-23 (human) (UniProt Q9NPF7). Briefly: phage display screening.
As to B1, the binding entry is recorded as “binds”.

As for B2, the binding result was “binds”.

Consider B3, for which the binding result is on record as “binds”.

For B4, the binding result is reported as “binds”.

B5: the binding entry is “binds”.
